What was measured:
[1] = tested on: Anti-OXY antibodies; experiment: Competitive ELISA of serum from animals immunized with OXY(Gly)4-KLH, OXY(Gly)4-OVA as coating antigen; format: binding, rat
Description: Because plateau values differed, IC50 values for each inhibitor were calculated based on the percentage of inhibition of the optical density of primary antibodies incubated with saline.

[2] = tested on: serum antibodies elicited by OXY-KLH; experiment: Competition ELISA of serum from rats vaccinated with OXY-KLH
[3] = tested on: serum antibodies elicited by M-KLH; experiment: Competition ELISA of serum from rats vaccinated with M-KLH

In the case of CN1CC[C@]23c4c5ccc(O)c4O[C@H]2[C@@H](O)C=C[C@H]3[C@H]1C5 [Morphine], the IC50 [1] is reported as 20 µM, the “relative affinity of antiserum / cross-reactivity (in words)” value [2] is reported as “low relative affinity” and the “relative affinity of antiserum / cross-reactivity (in words)” value [3] is reported as “high relative affinities”.

Reference: US20140093525A1, “COMPOSITIONS AND METHODS OF TREATING OPIOID ADDICTION” (Minneapolis Medical Research Foundation, priority 2012, published 2014)
